Test [1] addresses T1, biotinylated avi-tagged TβRI (human) (UniProt P36897).
T1 sequence (chain, biotin (biotinylated avi tag)): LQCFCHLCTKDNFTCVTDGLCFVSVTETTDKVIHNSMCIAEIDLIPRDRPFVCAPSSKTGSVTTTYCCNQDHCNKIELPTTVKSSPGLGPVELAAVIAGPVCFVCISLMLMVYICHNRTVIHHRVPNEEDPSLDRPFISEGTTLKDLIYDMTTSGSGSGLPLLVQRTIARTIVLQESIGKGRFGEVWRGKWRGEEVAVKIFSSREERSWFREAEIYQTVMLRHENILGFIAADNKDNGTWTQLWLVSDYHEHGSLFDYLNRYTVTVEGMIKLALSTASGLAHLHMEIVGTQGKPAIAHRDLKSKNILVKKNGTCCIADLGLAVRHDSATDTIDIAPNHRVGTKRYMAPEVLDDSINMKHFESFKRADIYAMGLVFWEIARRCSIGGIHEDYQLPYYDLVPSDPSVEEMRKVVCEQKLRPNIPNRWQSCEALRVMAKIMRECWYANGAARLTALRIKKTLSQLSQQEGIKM
The test is described as follows: SPR.

Test [2] has as its target T2, TβRI ectodomain (human) (UniProt P36897).
T2 sequence: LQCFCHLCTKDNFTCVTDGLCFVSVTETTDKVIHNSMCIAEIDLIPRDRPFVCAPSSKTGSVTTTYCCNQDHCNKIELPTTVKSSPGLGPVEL
The test is described as follows: NMR titration.

Results are given in words; binding and its absence hold for the method and conditions named. For some of these results: Binding can be weak; no strength is given. For some of these results: Tags and fused reporters may be left off the sequences shown.

The source of these data is publication doi:10.1101/2020.12.08.416701.

In the case of “TGM domain 1 (Heligmosomoides polygyrus) (domain or fragment)”, the binding result is “no binding (tested: 1.0 μM)” in test [1] and “binds weakly” in test [2]. In the case of “TGM domain 2 (Heligmosomoides polygyrus) (domain or fragment)”, the binding entry in test [2] is given as “binds”.

As to “TGM domain 3 (Heligmosomoides polygyrus) (domain or fragment)”, the binding entry in test [1] is “no binding (tested: 1.0 μM)”.
